In publication PMC10051889:
These are yes or no findings as the source states them, for the method shown. For some of these results: In cells and extracts the contact can be indirect. Some entries that bind do so weakly or less than the wild type. For some of these results: Tags and fused reporters may be left off the sequences shown.

Amino acid sequences for entries named in this document (tags omitted).
UniProt Q39026: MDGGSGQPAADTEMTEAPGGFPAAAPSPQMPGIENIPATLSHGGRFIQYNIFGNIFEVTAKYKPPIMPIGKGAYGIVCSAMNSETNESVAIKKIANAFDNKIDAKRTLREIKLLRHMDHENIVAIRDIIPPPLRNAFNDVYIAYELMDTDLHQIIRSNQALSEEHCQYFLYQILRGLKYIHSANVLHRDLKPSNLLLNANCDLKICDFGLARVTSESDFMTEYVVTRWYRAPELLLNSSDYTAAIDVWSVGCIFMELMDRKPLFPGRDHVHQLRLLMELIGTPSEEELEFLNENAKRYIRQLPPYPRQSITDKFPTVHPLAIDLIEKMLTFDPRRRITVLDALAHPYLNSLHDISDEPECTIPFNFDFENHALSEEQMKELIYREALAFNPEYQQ

T1: MPK3-nLUC (Arabidopsis thaliana) (UniProt Q39023)
T1 sequence: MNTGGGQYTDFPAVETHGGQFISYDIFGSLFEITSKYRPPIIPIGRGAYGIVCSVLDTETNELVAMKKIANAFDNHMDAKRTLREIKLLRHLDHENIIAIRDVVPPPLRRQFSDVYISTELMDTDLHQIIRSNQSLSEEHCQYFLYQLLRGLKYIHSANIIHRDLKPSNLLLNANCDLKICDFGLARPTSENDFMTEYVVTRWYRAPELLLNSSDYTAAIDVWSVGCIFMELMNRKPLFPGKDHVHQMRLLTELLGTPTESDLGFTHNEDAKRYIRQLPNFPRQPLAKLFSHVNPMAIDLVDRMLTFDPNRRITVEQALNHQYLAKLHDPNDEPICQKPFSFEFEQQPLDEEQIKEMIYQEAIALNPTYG

T2: MAP kinase3 (MPK3), pGBKT7-MPK3 bait (Arabidopsis thaliana) (UniProt Q39023)
T2 sequence: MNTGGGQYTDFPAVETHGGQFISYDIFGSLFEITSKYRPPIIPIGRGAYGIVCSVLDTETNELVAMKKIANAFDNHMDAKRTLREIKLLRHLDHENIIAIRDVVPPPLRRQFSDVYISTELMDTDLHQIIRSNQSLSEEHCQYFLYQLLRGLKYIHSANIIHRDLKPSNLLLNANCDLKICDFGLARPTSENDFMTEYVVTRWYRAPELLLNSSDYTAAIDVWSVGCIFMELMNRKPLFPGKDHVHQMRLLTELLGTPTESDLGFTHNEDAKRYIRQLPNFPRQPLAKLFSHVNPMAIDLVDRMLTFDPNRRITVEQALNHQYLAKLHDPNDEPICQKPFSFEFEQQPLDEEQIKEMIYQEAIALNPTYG


Tests used:
[1] = target: T1, MPK3-nLUC (Arabidopsis thaliana); assay: split reporter; luciferase complementation imaging (LCI); nLUC fusions of MPK3 or MPK6 and CRK41-cLUC transiently expressed in leaves of 5-week-old N. benthamiana by Agrobacterium GV3101, leaves collected after 2-3 days
[2] = target: MPK6-nLUC (Arabidopsis thaliana) (UniProt Q39026); assay: as above
[3] = target: T2, MAP kinase3 (MPK3), pGBKT7-MPK3 bait (Arabidopsis thaliana); assay: two-hybrid; MPK3 or MPK6 in pGBKT7 as bait, CRK41 in pGADT7 as prey; co-transformed into yeast AH109, grown on SD-Trp-Leu, then SD-Trp-Leu-His-Ade plates
[4] = target: MPK6, pGBKT7-MPK6 bait (Arabidopsis thaliana) (UniProt Q39026); assay: as above

| binding [1] | binding [2] | binding [3] | binding [4] | Binder |
| --- | --- | --- | --- | --- |
| binds | no binding |  |  | CRK41-cLUC (receptor, UniProt O23081 28-665) QQISVDINSAIWEFPSNPLCLSQQSNFAKSSQFSKNLDSLVSSIPSLKSNTYNFYSLSVGSISDQERVEAIGICNRVVNRVDCLNCIAQAAVNLTTMYCPQHRGAYVRATKCMFRYSDKPIFGKLETSPVLEAPNPSNATGDRNEFIRLQSELLNRLRSMAASGGSKRKYAQGTDPGSPPYTTFFGAVQCTPDLSEKDCNDCLSYGFSNATKGRVGIRWFCPSCNFQIESDLRFFLLDSEYEPDPKPGNDKVKIIIATVCSVIGFAIIAVFLYFFMTRNRRTAKQRHEGKDLEELMIKDAQLLQLDFDTIRLATNDFSRDNQLGEGGFGAVYKGVLDYGEEIAVKRLSMKSGQGDNEFINEVSLVAKLQHRNLVRLLGFCLQGEERILIYEFFKNTSLDHYIFDSNRRMILDWETRYRIISGVARGLLYLHEDSRFKIVHRDMKASNVLLDDAMNPKIADFGMAKLFDTDQTSQTRFTSKVAGTYGYMAPEYAMSGEFSVKTDVFSFGVLVLEIIKGKKNNWSPEEDSSLFLLSYVWKSWREGEVLNIVDPSLVETIGVSDEIMKCIHIGLLCVQENAESRPTMASVVVMLNANSFTLPRPSQPAFYSGDGESLSRDKNQINHIASLNDVTITEFDAR |
|  |  | binds | no binding | CRK41 (cysteine-rich receptor-like kinase 41), pGADT7-CRK41 prey (receptor, UniProt O23081 1-665) MTSSCSLSRPQHLFFFFFLFVPFLSLGQQISVDINSAIWEFPSNPLCLSQQSNFAKSSQFSKNLDSLVSSIPSLKSNTYNFYSLSVGSISDQERVEAIGICNRVVNRVDCLNCIAQAAVNLTTMYCPQHRGAYVRATKCMFRYSDKPIFGKLETSPVLEAPNPSNATGDRNEFIRLQSELLNRLRSMAASGGSKRKYAQGTDPGSPPYTTFFGAVQCTPDLSEKDCNDCLSYGFSNATKGRVGIRWFCPSCNFQIESDLRFFLLDSEYEPDPKPGNDKVKIIIATVCSVIGFAIIAVFLYFFMTRNRRTAKQRHEGKDLEELMIKDAQLLQLDFDTIRLATNDFSRDNQLGEGGFGAVYKGVLDYGEEIAVKRLSMKSGQGDNEFINEVSLVAKLQHRNLVRLLGFCLQGEERILIYEFFKNTSLDHYIFDSNRRMILDWETRYRIISGVARGLLYLHEDSRFKIVHRDMKASNVLLDDAMNPKIADFGMAKLFDTDQTSQTRFTSKVAGTYGYMAPEYAMSGEFSVKTDVFSFGVLVLEIIKGKKNNWSPEEDSSLFLLSYVWKSWREGEVLNIVDPSLVETIGVSDEIMKCIHIGLLCVQENAESRPTMASVVVMLNANSFTLPRPSQPAFYSGDGESLSRDKNQINHIASLNDVTITEFDAR |
